# Laboratory results as given in patent publication US8470783B2, “Medicinal use of histone deacetylase inhibitor and method of evaluating antitumor effect thereof” (Astellas Pharma Inc., priority 2001, dated 2013).
# Test system: human tumor cells (PC-3, U937, ACHN)
# Assay: Gene chip analysis of in vitro gene expression in human tumor cells (Example 6)
# Assay type: cell-based
# Conditions: of 7070 genes detectable using GeneChip
substance,measurement,value
FK228,number of genes that commonly showed decreased expression in the three human tumor cells,100 genes
same,number of genes that commonly showed increased expression in the three human tumor cells,105 genes
